## Results of single-concentration screens

Chains of the proteins cited; added tags and fusions are not shown. Residues count along the entry.
UniProt Q8IDJ8, 1-583: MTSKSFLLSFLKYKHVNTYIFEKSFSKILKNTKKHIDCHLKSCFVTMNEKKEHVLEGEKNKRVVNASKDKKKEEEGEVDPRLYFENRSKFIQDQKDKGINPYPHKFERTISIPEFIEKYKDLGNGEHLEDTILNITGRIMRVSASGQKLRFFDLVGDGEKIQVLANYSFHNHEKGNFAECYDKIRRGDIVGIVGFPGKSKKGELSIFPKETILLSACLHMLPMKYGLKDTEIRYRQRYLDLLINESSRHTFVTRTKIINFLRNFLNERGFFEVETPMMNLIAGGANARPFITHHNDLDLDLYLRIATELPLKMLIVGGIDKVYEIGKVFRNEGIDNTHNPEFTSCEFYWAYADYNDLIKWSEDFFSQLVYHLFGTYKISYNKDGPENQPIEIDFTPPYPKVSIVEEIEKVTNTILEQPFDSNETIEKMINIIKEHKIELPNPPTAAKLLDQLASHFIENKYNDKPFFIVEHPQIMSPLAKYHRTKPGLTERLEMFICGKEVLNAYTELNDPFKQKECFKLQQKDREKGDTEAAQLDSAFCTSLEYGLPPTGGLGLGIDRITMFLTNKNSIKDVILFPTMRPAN

Toxoplasma: 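Assay of Toxoplasma gondii numbers, read through their beta-galactosidase reporter with a colour substrate. Concentration: 10 µM. Higher reads as fewer parasites (inferred from which compounds were picked for retests). Size under these conditions: about 67,000 compounds, about 260 of them at 50% or above in at least one test.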
T. brucei: 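Whole-parasite assay of Trypanosoma brucei over 72 hours; the read-out is not stated. Concentration: 30 µM. The record gives no direction; compounds that gave an IC50 in retests scored well above the rest, so higher reads as stronger inhibition. Values scatter widely below zero; nearly all retest evidence comes from the higher of the two concentrations used. Size under these conditions: about 64,000 compounds, about 940 of them at 50% or above in at least one test.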
Leishmania in macrophages: 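Cell assay of Leishmania donovani living inside macrophages; the read-out is not stated. Compounds at 30 µM. The record gives no direction; compounds that gave an IC50 in retests scored well above the rest, so higher reads as stronger inhibition. Size under these conditions: about 69,000 compounds, about 1,000 of them at 50% or above in at least one test.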
PfKRS1: 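Enzyme assay of the cytosolic lysyl-tRNA synthetase in 384-well plates, read by luminescence. Target: Lysine-tRNA ligase, Plasmodium falciparum 3D7 (UniProt Q8IDJ8). Compounds at 30 µM. Direction is inferred from only a few compounds that gave an IC50; most scored high, so higher reads as stronger inhibition. About 69,000 compounds were tested under these conditions; 0.071% (about 49) showed 50% or more at least once.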

The filed quantity is “Percent Effect” (%). The controls that fix the scale are not given in the record; negative values are as filed. Compounds were drawn at random from those tested, without regard to their results. Two or more numbers in one place are separate tests of the same structure; such repeats can differ widely. A dash means the value is not listed here; it may have been measured.

| structure | Toxoplasma | T. brucei | Leishmania in macrophages | PfKRS1 |
|---|---|---|---|---|
| `CC(C)OCCCN(Cc1ccncc1)Cc1cccc(F)c1F.Cl` | -5.4 | -30.88 | -12.07 & 5.477 | - |
| `CCc1ccc(CN(C)Cc2nc(COc3ccccc3)no2)nc1` | -6.667 | -12.81 | -4.121 | 4.127 |
| `NC(=O)C1CN(c2ccc(F)cc2)CCN1` (stereo unspecified) | - | - | - | 1.423 |
| `CCN1CCC(CNC(=O)NCc2cc(-c3ccc(C)cc3)no2)C1` (stereo unspecified) | 2.8 | 29.13 | 24.88 | 0.4235 |
| `COC(=O)C(C)NC(=O)CSCc1nc(O)c2cc(C(C)C)sc2n1` (stereo unspecified) | -5.293 | -64.08 | -19.24 | 1.607 |
| `CNC(=O)COC(=O)c1ccn(-c2ccc(Cl)c(Cl)c2)n1` | 31.57 | -46.68 | 8.009 | 5.216 |
| `CN(C)CC(=O)N1Cc2cc(N(C)C)ccc2C1c1cnco1` (stereo unspecified) | 4.734 | -38.23 | 23.37 | 2.443 |
| `Cc1ccc(NC(=O)N(CCO)Cc2ccsc2)cc1` | 16.01 | - | -11.5 | 3.541 |
| `c1cc(-c2noc(C3CCC3)n2)cc(N2CCCCC2)n1` | 0.2163 | -53.16 | -13.77 | -0.3302 |
| `COc1c(C(=O)N2CCC(COCc3ccccc3)C2)c(C)nn1C` (stereo unspecified) | -2.027 | -15.21 | -63.8 | 0.7453 |
| `COCC1COCCC12CCN(S(=O)(=O)c1ccccc1)CC2` (stereo unspecified) | -36.35 | -22.3 | 28.38 | 5.349 |
| `O=C(N1CCSCC1)C1(O)Cc2ccccc2C1` | -7.797 | 1.588 | -3.11 | 3.088 |
| `CC(C)c1nccn1CCCNC(=O)c1ccc(-c2cncnc2)nc1` | 0 | 45.35 | 32.6 | 4.16 |
| `O=C1CCC2(CCCN(C(=O)c3ccoc3)C2)CN1CCc1c[nH]cn1` (stereo unspecified) | 3.797 | -36.38 | -13.07 | 5.492 |
| `CCNc1ncc(CN(CCN(C)C)Cc2ccc(C)s2)cn1` | -4.309 | -2.945 | 7.089 | 4.754 |
| `CCn1ccnc1CN1CCNCC1C.Cl.Cl` (stereo unspecified) | 7.092 | -45.63 | 16.47 | - |
| `Cc1cc(N(C)C)nc(C2COCCN2Cc2cc(C)on2)n1` (stereo unspecified) | -4.245 | -12.34 | 12.57 | 1.466 |
| `Cc1nc(C)n(C2CCCN(C(=O)CCc3cn(C)nc3C)C2)n1` (stereo unspecified) | 4.5 | -10.38 | 18.11 | 5.002 |
| `O=C(N[C@H]1CN(c2nc(CO)cs2)C[C@@H]1C1CC1)C1CCCCC1` | 3.539 | -32.4 | -17.21 | 4.764 |
| `COc1ccc(N2Cc3nc(=O)[nH]n3C2=O)cc1` | -11.48 | -44.3 | -11.03 | -2.513 |
| `CN(Cc1cccs1)c1cc(N2CCCC2CO)ncn1` (stereo unspecified) | 9.119 | -3.237 | 5.311 | 1.715 |
| `CCC(C)NC(=O)c1cc(Br)c2c(c1)OCCO2` (stereo unspecified) | 4.493 | 14.84 | 30.6 | -0.04695 |
| `Cc1nc(-c2cccc(C(=O)O)c2)c[nH]1` | -22.65 | -26.88 | -61.89 | -6.763 |
| `Cc1ncsc1CN(Cc1ccccc1)Cc1ncc[nH]1` | -10.51 | -18.87 | -37.36 | 2.202 |
| `Cl.OC[C@H]1CC[C@]2(CC1)CN(Cc1ccsc1)Cc1ccccc1O2` | -3.728 | 39.16 | 2.289 & -11.38 | - |
| `CNC(=O)CS(=O)(=O)Cc1coc(-c2ccc(OC)cc2)n1` | -3.462 | -7.348 | 21.22 | 2.336 |
| `COc1ccc(C2(C(=O)N3CC(c4cccnc4)C3)CC2(C)C)cc1` (stereo unspecified) | 0.946 | -9.244 | -53.27 | 2.891 |
| `CC(=O)N1CCN([C@@H]2CC[C@@H](NC(=O)c3cncc(C)c3)[C@H]2O)CC1` | 6.598 | -36.55 | -10.84 | -4.891 |
| `O=c1c2ccccc2ncn1Cc1cc(C2CC2)[nH]n1` | -4.439 | -10.1 | 3.156 | -1.7 |
| `O=C(NCCn1ccnc1)N1CCCN(Cc2cccs2)CC1` | -2.478 | - | 32.04 | -0.2905 |
| `c1cc2ccc(N3CCN(Cc4ccc5c(c4)OCO5)CC3)nc2[nH]1` | -1.451 | 18.96 | 6.83 | 0.6571 |
| `COCC1c2c(cnn2CC2CCOCC2)CCN1Cc1ccoc1` (stereo unspecified) | - | - | - | 7.286 |
| `Cc1cnn(C2CCCN(C(=O)Cc3ccc(C#N)cc3)C2)c1` (stereo unspecified) | -3.487 | -6.124 | 0.4612 | 1.133 |
| `CC(C)c1cc(NC2CCN(C(=O)N3CCCC3)CC2)ncn1` | 6.883 | 2.099 | 15.31 | 2.247 |
| `CC(NCCc1nccn1Cc1ccccc1)c1cccs1` (stereo unspecified) | -4.448 | -36.47 | -22.84 | 2.078 |
| `Cc1nn(C)cc1S(=O)(=O)N[C@@H]1CC[C@@H](n2ccnc2C)[C@@H]1O` | -4.033 | -12.96 | -29.93 | -0.9119 |
| `O=C(Nc1ccnc2ccnn12)c1ccc(NC2CC2)nc1` | 8.273 | -12.82 | 5.941 | 5.797 |
| `c1cc(-c2cc(C3CCN(Cc4cncnc4)C3)ccn2)ccn1` (stereo unspecified) | 5.918 | -27.27 | 23.57 | -0.4439 |
| `Cc1ccccc1C(=O)N1C[C@@H]2C[C@@H](C)O[C@@H]2C1` | - | - | - | 1.321 |
| `CCS(=O)(=O)NCc1nc(C)cc(N2CCCC2)n1` | 0.2068 | 4.691 | 12.9 | 1.244 |
| `CN1CCO[C@@H]2CN(S(=O)(=O)c3cccs3)CC[C@@H]2C1` | - | - | - | 2.832 |
| `CCCn1ccnc1-c1cccc(NC(=O)C2CCCOC2)c1` (stereo unspecified) | -3.903 | -87.17 | 16.1 | 2.942 |
| `CN(C)C(=O)N1Cc2nnn(C)c2C(COCC2CC2)C1` (stereo unspecified) | 21.41 | 6.52 | 8.595 | 0.5603 |

4 of the entries, repeated:

{"structure": "CCc1ccc(CN(C)Cc2nc(COc3ccccc3)no2)nc1", "Toxoplasma": -6.667, "T. brucei": -12.81, "Leishmania in macrophages": -4.121, "PfKRS1": 4.127}
{"structure": "COc1c(C(=O)N2CCC(COCc3ccccc3)C2)c(C)nn1C", "stereo": "stereo unspecified", "Toxoplasma": -2.027, "T. brucei": -15.21, "Leishmania in macrophages": -63.8, "PfKRS1": 0.7453}
{"structure": "Cc1nc(-c2cccc(C(=O)O)c2)c[nH]1", "Toxoplasma": -22.65, "T. brucei": -26.88, "Leishmania in macrophages": -61.89, "PfKRS1": -6.763}
{"structure": "CCNc1ncc(CN(CCN(C)C)Cc2ccc(C)s2)cn1", "Toxoplasma": -4.309, "T. brucei": -2.945, "Leishmania in macrophages": 7.089, "PfKRS1": 4.754}

Measurements from “University of Dundee, Small-Polar-MMV Screening Library” (2021), ChEMBL document CHEMBL3988442.